Test results from US10280188B2, “Fluorine-containing bisphosphonic acid derivative and use thereof” (NAGASAKI UNIVERSITY, priority 2015, dated 2019).
Some results were stated once for a whole list of compounds, not compound by compound.

Tested on: adult T cell leukemia cell line HCT-5
Experiment: Specific cytotoxicity of Vδ2 positive γδ T cells on compound-treated HCT-5 (time-resolved fluorescence)
Conditions: γδ T cells from adult T cell leukemia patients (4), E/T 1.25:1-80:1, single concentration tested

## O=P(O)(O)C(F)(Cn1ccnc1)P(=O)(O)O [ZOLF, 1-fluoro-(2-imidazoyl-1-ethylidene)-1,1-bisphosphonic acid]
  concentration at which sensitivity to cytotoxicity activity of Vδ2 positive γδ T cells is promoted: at least 1 mM
